Source: PubChem BioAssay AID2685 (National Center for Advancing Translational Sciences (NCATS), 2010)
Some of the results follow. Shown are side measurements of this screen, not its main read-out; they come without a call. Most of these compounds were active or inconclusive in the main read-out, so they are no random draw. The note in brackets gives the kind of curve behind each potency; many fits are weak.

Assay: qHTS Assay for Lipid Storage Modulators in Drosophila S3 Cells;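 for cell number change: cells counted by Cell Tracker Red CMTPX staining in the red channel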
Settings: BODIPY lipid droplet fluorescence, 18-24 h; for cell number change: measured here: cell count max response, cells fed with added oleic acid
Summary of the method: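 Drosophila S3 cells got compounds at several concentrations plus oleic acid (400 uM solution). Laser-scanning cytometry with 488 nm excitation read lipid droplets at 500-530 nm and cells at 575-640 nm. Percent activity was relative to 20 uM Triacsin C.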

[1] = measured here: cell number channel AC50, cells fed with added oleic acid
[2] = measured here: lipid fluorescence (Fed channel) AC50, cells fed with added oleic acid

Row | SMILES | cell number change [%] | AC50 [1] | AC50 [2]
1 | COCCCNC(=O)Cc1c(C)c2c(cc(C)c3c(C(C)(C)C)coc32)oc1=O | -80.4 | 20.6 µM [falling, partial curve] | 10.3 µM [falling, partial curve]
2 | CCn1c(SCC(=O)Nc2ccc(OC)c(OC)c2)nnc1-c1ccco1 | 17.8 | 0.58 µM [rising, single point] | 0.0291 µM [rising, full curve, poor fit]
3 | Cc1nn(CC(=O)NCCCN2CCC(Cc3ccccc3)CC2)c(=O)c2cc(-c3ccccc3)nn12 | 17.5 |  | 2.59 µM [rising, single point]
4 | COc1ccc(-c2cc(C)no2)cc1S(=O)(=O)NCC1CCN(Cc2cc(C)ccc2C)CC1 | 23.4 |  | 18.4 µM [rising, partial curve]
5 | Cc1ccc(C(=O)Nc2ccc(N3CCOCC3)c3nonc23)cc1[N+](=O)[O-] | 23.9 |  | 6.51 µM [falling, single point]
6 | COc1cccc(N2CCN(C(=O)/C=C/c3ccco3)CC2)c1 | 35.5 | 1.03 µM [rising, full curve, poor fit] | 23.1 µM [rising, single point]
7 | O=C(COC(=O)c1ccc(S(=O)(=O)N2CCCCC2)cc1)NCc1ccc(F)cc1 | 15.5 |  | 
8 | O=C(NNS(=O)(=O)c1ccc(Br)cc1)C1CCCCC1 | 17.9 |  | 1.84 µM [falling, partial curve]
9 | COc1ccccc1/C=N/NC(=O)c1ccccc1NS(=O)(=O)c1ccc(C)cc1 | 69.5 | 16.4 µM [rising, single point] | 18.4 µM [rising, single point]
10 | CS(=O)(=O)Oc1ccc2c(c1)O/C(=C\c1cccc([N+](=O)[O-])c1)C2=O | -31.8 | 20.6 µM [falling, single point] | 29.1 µM [falling, single point]
11 | CN(Cc1ccccc1)C(=O)c1nn2cccnc2c1Cl |  |  | 0.206 µM [rising, full curve, poor fit]
12 | CCC(=O)NC(=S)Nc1ccc(NC(=O)c2cccnc2)cc1 | -30.8 | 23.1 µM [falling, single point] | 14.6 µM [falling, partial curve]
13 | O=C(CSc1ccccc1)Nc1ccc(S(=O)(=O)NCC2CCCO2)cc1 (centres undefined) | -15.6 |  | 
14 | O=C(O)c1cccc(NS(=O)(=O)c2cccc3nsnc23)c1 | 1.26 |  | 29.1 µM [falling, single point]
15 | Cc1ccc(Cl)c(NC(=O)COC(=O)C2CCC2)c1Cl | -1 |  | 
16 | O=C(COc1ccccc1[N+](=O)[O-])Nc1ccc2c(c1)OCO2 | -17.5 |  | 
17 | Cc1ccc(S(=O)(=O)c2c(C)nn(-c3ccccc3)c2OC(=O)c2ccco2)cc1 | -29.8 | 0.00461 µM [falling, full curve, poor fit] | 
18 | Nc1cc(OC(=O)c2ccc(F)cc2)nn1S(=O)(=O)c1ccc(F)cc1 | 18.5 |  | 2.91 µM [rising, single point]
19 | CC1=CC(c2ccccc2)n2nc(NC(=O)CCCC(=O)O)nc2N1 (centres undefined) | 90.1 | 20.6 µM [rising, partial curve] | 
20 | Cc1ccc(NC(=O)COC(=O)CN2C(=O)NC(C)(C)C2=O)cc1S(=O)(=O)N1CCOCC1 | 73.2 | 20.6 µM [rising, single point] | 

Looked up above.
Value of Cc1ccc(C(=O)Nc2ccc(N3CCOCC3)c3nonc23)cc1[N+](=O)[O-] under cell number change [%]: 23.9
Value of Cc1ccc(Cl)c(NC(=O)COC(=O)C2CCC2)c1Cl under cell number change [%]: -1
Value of COc1ccccc1/C=N/NC(=O)c1ccccc1NS(=O)(=O)c1ccc(C)cc1 under AC50 [2]: 18.4 µM [rising, single point]
Value of Cc1nn(CC(=O)NCCCN2CCC(Cc3ccccc3)CC2)c(=O)c2cc(-c3ccccc3)nn12 under cell number change [%]: 17.5
Value of COCCCNC(=O)Cc1c(C)c2c(cc(C)c3c(C(C)(C)C)coc32)oc1=O under AC50 [2]: 10.3 µM [falling, partial curve]

Following part

Row | SMILES | cell number change [%] | AC50 [1] | AC50 [2]
21 | Cc1ccc(S(=O)(=O)N(C)c2ccc(C(=O)N3CCC(C(N)=O)CC3)cc2)cc1 |  |  | 3.26 µM [falling, single point]
22 | CC(Nc1nc(-c2ccccc2O)nc2ccccc12)c1ccccc1 (centres undefined) | 15.2 | 3.66 µM [rising, single point] | 3.66 µM [rising, full curve]
23 | Cc1cc(C)n(CC(=O)c2ccccc2)c(=O)c1C#N | -18.7 | 0.13 µM [falling, full curve, poor fit] | 29.1 µM [rising, single point]
24 | CCOC(=O)C1CCCN(C(=O)C2CCN(S(=O)(=O)c3cnc[nH]3)CC2)C1 (centres undefined) | -22.2 |  | 23.1 µM [falling, partial curve]
25 | CC1CCCN(CC(=O)Nc2cc(Cl)ccc2Oc2ccccc2)C1 (centres undefined) | 7.14 |  | 
26 | CC1=C(C(=O)OC2CCCCC2)C(c2cccnc2)n2nnnc2N1 (centres undefined) | -50.5 | 20.6 µM [falling, single point] | 18.4 µM [falling, single point]
27 | CC1(c2ccc3ccccc3c2)NC(=O)N(CC(=O)N2CCN(Cc3ccccc3)CC2)C1=O (centres undefined) | -31.6 | 13 µM [falling, partial curve] | 
28 | CCc1n[nH]c2c1/C(=N\O)CC(c1ccccc1)C2 (centres undefined) | -6.56 |  | 0.00517 µM [rising, full curve, poor fit]
29 | O=C(Nc1ccc2c(c1)OCCO2)C1CCCN(c2ncccn2)C1 (centres undefined) | 20.8 |  | 0.461 µM [rising, partial curve]
30 | NS(=O)(=O)c1ccc(NC(=O)COC(=O)/C=C/c2ccc([N+](=O)[O-])cc2)cc1 | -35.8 | 6.51 µM [falling, full curve, poor fit] | 4.61 µM [falling, full curve]
31 | COc1cccc(N(CC(=O)NC(C)(C)C)C(=O)C2CSC(=O)C2)c1 (centres undefined) | 15.5 |  | 
32 | Cc1ccc(C(=O)C2CCN(S(=O)(=O)c3ccc(C(=O)O)cc3)CC2)cc1 | 15.4 | 0.13 µM [rising, full curve, poor fit] | 
33 | Cc1ccc(Nc2nc(N)nc(CSC(=S)N3CCOCC3)n2)cc1 | -0.5 |  | 0.0326 µM [falling, full curve, poor fit]
34 | CCOC(=O)C(=O)N1CCC(Cc2ccccc2)CC1 | -11 | 1.64 µM [rising, partial curve, poor fit] | 
35 | CCC(=O)NNc1ncnc2c1cnn2C | -65.1 | 25.9 µM [falling, single point] | 29.1 µM [falling, single point]
36 | COC(=O)c1ccc(S(=O)(=O)N(Cc2cc3cc4c(cc3[nH]c2=O)OCO4)C2CCCCC2)cc1 |  |  | 29.1 µM [rising, single point]
37 | COc1ccc(S(=O)(=O)N2CCCCC2)cc1NC(=O)c1c(F)cccc1Cl | 34.8 | 16.4 µM [rising, single point] | 20.6 µM [falling, single point]
38 | CC(=O)c1ccc(Oc2nc(-c3cccnc3)nc3ccccc23)cc1 | -6.85 | 0.82 µM [rising, partial curve, poor fit] | 0.92 µM [rising, full curve]
39 | C#CCNC(=O)C1=C[C@@H](c2ccc(C(F)(F)F)cc2)[C@H](CCCO)[C@@H](OCC)O1 | -18.9 |  | 4.11 µM [rising, single point]
40 | COc1ccc(CNC(=O)Nc2ccc3c(c2)N(C)C(=O)CS3)cc1 | -27.6 |  | 29.1 µM [falling, single point]

Row | SMILES | cell number change [%] | AC50 [1] | AC50 [2]
41 | FC(F)(F)c1cccc(Cc2noc(CN3CCC(N4CCCCC4)CC3)n2)c1 | -7.26 |  | 2.06 µM [rising, single point]
42 | O=C(Nc1cc(C(F)(F)F)ccc1-n1cncn1)c1ccc(Cl)cc1 |  | 1.46 µM [rising, partial curve] | 1.3 µM [rising, partial curve]
43 | CC(=O)NCC(=O)OCC(=O)c1ccc2ccccc2c1 | -19.8 |  | 9.2 µM [falling, single point]
44 | COC(=O)C(C)(C)ONC(=O)Nc1ccc(Br)cc1 | 0.594 |  | 
45 | CC(C)OC(=O)c1cc(NC(=O)C2C3CCC(O3)C2C(=O)O)cc(C(=O)OC(C)C)c1 (centres undefined) | 33.9 | 0.291 µM [rising, full curve, poor fit] | 2.06 µM [rising, partial curve]
46 | Cc1cccc(C(=O)NC(=S)N2CCN(c3ccc([N+](=O)[O-])cc3)CC2)c1 | -18.5 | 0.58 µM [rising, single point] | 
47 | CCOc1ccccc1/C=C/c1nc2ccccc2[nH]c1=O | 3.97 |  | 0.092 µM [rising, partial curve, poor fit]
48 | COc1ccc(C(=O)Nc2ccc(NC(=O)c3ccccc3F)cn2)cc1 | 3.78 |  | 
49 | Oc1cccc(C2c3[nH]c4ccccc4c3CCN2Cc2ccoc2)c1 (centres undefined) | -36.5 | 18.4 µM [falling, single point] | 13 µM [falling, partial curve]
50 | C=CCNC(=O)Nc1ccc(F)c(Cl)c1 | -6.28 |  | 
51 | O=C(O)c1cc2ccccc2c(N=Nc2cccnc2)c1O | -9.52 |  | 
52 | CCCC(=O)N1CCN(c2ccc([N+](=O)[O-])c(NC(C)c3ccccc3)c2)CC1 (centres undefined) |  |  | 0.731 µM [falling, full curve]
53 | COc1cccc(OCC(=O)NNC(=O)c2cnccn2)c1 | 7.35 |  | 
54 | Cn1c(N)nc2nc(CCc3ccccc3)c(=O)[nH]c2c1=O | 8.7 |  | 6.51 µM [falling, partial curve, poor fit]
55 | CCn1cc(C(=O)NCc2ccccc2OC)c(=O)c2ccc(C)nc21 | 2.29 |  | 
56 | Cc1cccc(NC(=O)c2ccc3ccccc3n2)c1C | -8.23 | 0.146 µM [rising, partial curve, poor fit] | 
57 | COc1cc2nc(N(CCCN(C)C)C(=O)c3ccc(C(=O)c4ccccc4)cc3)sc2cc1OC | 10.9 |  | 0.58 µM [falling, single point]
58 | CCCN(CC(=O)Nc1ccccc1C)C(=O)C1CC(=O)N(Cc2ccccc2)C1 (centres undefined) |  |  | 0.58 µM [rising, single point]
